Source: patent US20250222127A1, “COMPOSITIONS AND METHODS FOR TREATING AND PREVENTING TRANSPLANT-ASSOCIATED INJURY” (MUSC Foundation For Research Development, priority 2016, published 2025)
No constants are given. Whether binding was seen depends on the method and setting. Some results given as binding are weak or reduced against the parent protein; the word gives no strength.

Molecular target: T1, annexin IV in post-ischemic mouse tissue (transplanted heart, brain-dead donor cardiac grafts, liver) (mouse) (UniProt P97429)
T1 sequence (looked up): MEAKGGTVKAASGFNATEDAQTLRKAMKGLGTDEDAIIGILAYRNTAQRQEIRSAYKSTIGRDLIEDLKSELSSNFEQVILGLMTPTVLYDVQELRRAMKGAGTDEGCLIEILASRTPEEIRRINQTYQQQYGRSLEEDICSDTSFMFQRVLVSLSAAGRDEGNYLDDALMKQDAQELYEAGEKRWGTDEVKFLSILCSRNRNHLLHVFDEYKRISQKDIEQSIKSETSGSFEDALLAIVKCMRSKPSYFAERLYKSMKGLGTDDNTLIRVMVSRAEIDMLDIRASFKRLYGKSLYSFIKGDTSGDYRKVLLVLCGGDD
Assay: in vivo targeting, mouse cardiac allograft model

binding: binds
B1: B4scFv-Crry (scFv)
chain: VKLQESGPELVKPGASVKISCKASGYTFTDYYMNWVKQSHGKSLEWIGDINPNNGGTSYNQKFKGKATLTVDKSSSTAYMELRSLTSEDSAVYYCARYDYAWYFDVWGQGTTVTVSSGGGGSGGGGSGGGGDVLMTQTPLSLPVSLGDQASISCRSSQSIVHSNGNTYLEWYLQKPGQSPKLLIYKVSNRFSGVPDRFSGSGSGTDFTLKISRVEAEDLGVYYCFQGSHVPYTFGGGTKLEIKRGGGGSGGGGSCPAPSQLPSAKPINLTDESMFPIGTYLLYECLPGYIKRQFSITCKQDSTWTSAEDKCIRKQCKTPSDPENGLVHVHTGIQFGSRINYTCNQGYRLIGSSSAVCVITDQSVDWDTEAPICEWIPCEIPPGIPNGDFFSSTREDFHYGMVVTYRCNTDARGKALFNLVGEPSLYCTSNDGEIGVWSGPPPQCIELNKCTPPPYVENAVMLSENRSLFSLRDIVEFRCHPGFIMKGASSVHCQSLNKWEPELPSCFKGVICRLPQEMSGFQKGLGMKKEYYYGENVTLECEDGYTLEGSSQSQCQSDGSWNPLLAKCVSRSIIEGRHHHHHH
modifications: 125I radiolabel in the graft perfusion experiment (position not given)
notes: also called B4-Crry; B4Crry
